The whole screen tested about 260,000 compounds, of which about 1,500 (0.58%) were called active.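 Rule for the calls: active = inhibition above a set limit at one or more doses, reproduced on every date tested; inconclusive = results disagree between test dates, or hit never tested in dose response; inactive = the rest.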 Inconclusive results, whose numbers are uncertain, are shown.
molecular target: Virion infectivity factor (Human immunodeficiency virus type 1 group M subtype B (isolate BH10)) + Virion infectivity factor (Human immunodeficiency virus type 1 group M subtype B (isolate BRU/LAI)) + Virion infectivity factor (Human immunodeficiency virus type 1 group M subtype B (isolate PCV12)) + Virion infectivity factor (Human immunodeficiency virus type 1 group M subtype B (isolate HXB2)) + DNA dC->dU-editing enzyme APOBEC-3G (Homo sapiens) (UniProt P69720+P69721+P69722+P69723+Q9HC16); experiment: inhibitors of Vif binding to APOBEC3G peptide, primary screen, biochemical, TR-FRET, GST-Vif 1-94, biotin-A3G peptide, dose response retest (AID 1117319); conditions: hits give high values;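 note: Vif residues 1-94 fused to GST binding biotinylated APOBEC3G peptide 110-148; 0% = full assay without inhibitor and 100% = GST in place of GST-Vif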

Sequences of proteins named here, by UniProt entry; tags and fusion partners are left off. A change or cut given only in a name is not applied to a line headed by its entry.
UniProt P69720: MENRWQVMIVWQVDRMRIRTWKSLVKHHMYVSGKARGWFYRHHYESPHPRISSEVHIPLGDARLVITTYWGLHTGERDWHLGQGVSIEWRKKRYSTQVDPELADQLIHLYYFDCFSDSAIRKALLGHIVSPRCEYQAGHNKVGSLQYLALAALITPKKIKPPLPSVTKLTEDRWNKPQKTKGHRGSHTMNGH
UniProt P69721: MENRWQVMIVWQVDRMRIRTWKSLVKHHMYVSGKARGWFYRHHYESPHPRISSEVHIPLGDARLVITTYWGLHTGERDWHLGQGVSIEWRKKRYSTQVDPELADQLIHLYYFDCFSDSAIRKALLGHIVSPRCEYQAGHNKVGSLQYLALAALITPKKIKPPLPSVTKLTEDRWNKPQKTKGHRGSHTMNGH
UniProt P69722: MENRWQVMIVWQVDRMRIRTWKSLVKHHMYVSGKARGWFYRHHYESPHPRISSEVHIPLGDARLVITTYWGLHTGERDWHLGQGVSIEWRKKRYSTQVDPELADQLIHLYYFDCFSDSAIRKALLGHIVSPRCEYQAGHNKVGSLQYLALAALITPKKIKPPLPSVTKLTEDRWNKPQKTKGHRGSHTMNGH
UniProt P69723: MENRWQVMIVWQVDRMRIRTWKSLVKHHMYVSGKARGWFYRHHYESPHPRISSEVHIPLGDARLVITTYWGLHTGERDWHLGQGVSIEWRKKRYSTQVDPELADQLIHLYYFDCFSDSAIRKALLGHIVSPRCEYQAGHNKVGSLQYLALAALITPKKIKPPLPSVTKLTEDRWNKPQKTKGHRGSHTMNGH
UniProt Q9HC16: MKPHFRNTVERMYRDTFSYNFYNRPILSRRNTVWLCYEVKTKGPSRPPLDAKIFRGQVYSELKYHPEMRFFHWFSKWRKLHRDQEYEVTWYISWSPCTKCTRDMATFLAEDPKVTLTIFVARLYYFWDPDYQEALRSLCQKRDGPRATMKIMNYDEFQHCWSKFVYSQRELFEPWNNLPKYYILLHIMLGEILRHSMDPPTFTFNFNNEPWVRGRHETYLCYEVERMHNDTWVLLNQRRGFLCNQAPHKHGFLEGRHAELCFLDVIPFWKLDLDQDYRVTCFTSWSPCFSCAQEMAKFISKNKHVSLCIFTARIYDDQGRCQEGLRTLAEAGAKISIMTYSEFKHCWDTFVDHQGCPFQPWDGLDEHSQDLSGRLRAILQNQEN

Question: Cc1ccc(O)c(CN2CCN(c3ccccc3)CC2)c1 was tested. Which inhibition did it give?
Answer: inconclusive: 34%

Question: How did the inhibition turn out when COc1ccc(CN2C(=O)NC(=O)/C(=C/c3ccoc3)C2=O)cc1 was run?
Answer: inconclusive: 57.1%

Question: With COc1ccc(C[C@@H]2c3cc(O)c(OC)cc3CCN2C)cc1O as the compound, how does the inhibition read?
Answer: inconclusive: 38.2%

Question: Which inhibition does the source give for O=[N+]([O-])[N-][n+]1cnn(Cc2ccccc2)c1 here?
Answer: inconclusive: 56.2%

Question: How did the inhibition turn out when Cc1cc(C=C2C(=O)N(C)C(=S)N(C)C2=O)c(C)n1-c1ccncc1 was run?
Answer: inconclusive: 62.4%

Question: Which inhibition does the source give for CC1=CC(C)C(COC(N)=O)(COC(N)=O)C(C)C1 (stereo unspecified) here?
Answer: inconclusive: 41.5%

Question: With c1ccc2c(CN3CCCCCC3)c[nH]c2c1 as the compound, how does the inhibition read?
Answer: inconclusive: 58.9%

Question: CCOC(=O)C1=C(C)OC(N)=C(C(=O)OCC)[C@@]12C(=O)N(CC(N)=O)c1ccccc12 was tested. Which inhibition did it give?
Answer: inconclusive: 57.8%

Question: With C[N+]1(C)[C@@H]2CC[C@H]1CC(OC(=O)C(CO)c1ccccc1)C2 (stereo partly specified) as the compound, how does the inhibition read?
Answer: inconclusive: 37.8%

Question: Which inhibition does the source give for COc1ccc(OCC(=O)N2CCN(CC3CC4C=CC3C4)CC2)cc1 (stereo unspecified) here?
Answer: inconclusive: 33.8%

Question: How did the inhibition turn out when Cc1ccc(Sc2ccc(C=C3C(=O)N(C)C(=O)N(C)C3=O)o2)cc1 was run?
Answer: inconclusive: 33.7%

Question: How did the inhibition turn out when CCCC[N+]12CCC(CC1)C(Cc1ccccc1)C2 (stereo unspecified) was run?
Answer: inconclusive: 47%

Question: For COc1ccc(CC(=O)Nc2ccc3c(C(F)(F)F)cc(=O)oc3c2)cc1OC, which inhibition is on record?
Answer: inconclusive: 44.8%

Question: How did the inhibition turn out when COCCCn1c(N)c(C(=O)Nc2sc3c(c2C(=O)OC)CCCC3)c2nc3ccccc3nc21 was run?
Answer: inconclusive: 47.6%

Question: N#Cc1c(Cl)nc(Cl)c2c1CCN(Cc1ccccc1)C2 was tested. Which inhibition did it give?
Answer: inconclusive: 37.7%

Question: Which inhibition does the source give for NS(=O)(=O)c1cccc(N2CCNCC2)c1 here?
Answer: inconclusive: 35.3%

Question: With COc1ccc(/C=C2\C(=O)NC(=S)N(C)C2=O)cc1C as the compound, how does the inhibition read?
Answer: inconclusive: 37.9%

Question: For COc1ccccc1OCC#CCN1CCCC(C)C1 (stereo unspecified), which inhibition is on record?
Answer: inconclusive: 47%

Question: For COCCCNC(=O)c1c(N)n(Cc2ccco2)c2nc3ccccc3nc12, which inhibition is on record?
Answer: inconclusive: 47.5%

Question: Which inhibition does the source give for CN1CCN(C(=O)COc2ccc(S(=O)(=O)N(C)Cc3ccccc3)cc2)CC1 here?
Answer: inconclusive: 48%

Question: How did the inhibition turn out when CN1CCC(c2c[nH]c3ccccc23)C1 (stereo unspecified) was run?
Answer: inconclusive: 43.8%

Question: CNC(C(=O)c1ccccc1)C(OC(C)=O)c1cccc([N+](=O)[O-])c1 (stereo unspecified) was tested. Which inhibition did it give?
Answer: inconclusive: 37.7%

Question: Which inhibition does the source give for CC(=O)NC(Cc1ccc(N(CCCl)CCCl)cc1)C(=O)NCC(=O)NCC(=O)O (stereo unspecified) here?
Answer: inconclusive: 43.6%

Question: For Cc1ccc2c(c1Cl)NC(C(=O)O)C1CC(Sc3ccccc3[N+](=O)[O-])C(Cl)C21 (stereo unspecified), which inhibition is on record?
Answer: inconclusive: 63%

Question: COc1ccccc1N1C(=O)NC(=O)/C(=C/c2ccc3c4c(cccc24)CC3)C1=O was tested. Which inhibition did it give?
Answer: inconclusive: 42.3%

Question: Which inhibition does the source give for O=c1[nH]c(=S)n(C2CC2)c(O)c1/C=N/Nc1cccc2ccccc12 here?
Answer: inconclusive: 38%

Question: With COc1ccc2c(c1OC)C(=O)OC2c1c(O)n(Cc2ccc(F)cc2)c(=O)[nH]c1=O (stereo unspecified) as the compound, how does the inhibition read?
Answer: inconclusive: 59.7%

Question: For Cc1ccc(S(=O)(=O)NC(Cc2cnc[nH]2)C(=O)O)cc1 (stereo unspecified), which inhibition is on record?
Answer: inconclusive: 37.3%

Question: Which inhibition does the source give for O=C(Cc1ccccc1)N1CCN(C2CCCC2)CC1 here?
Answer: inconclusive: 40.5%

Question: O=C1NC(=O)N(c2ccccc2)C(=O)/C1=C/C=C/c1ccco1 was tested. Which inhibition did it give?
Answer: inconclusive: 60.4%

Question: Which inhibition does the source give for C=CCn1c(O)c(C(CC)=Nc2ccc(N(CC)CC)cc2)c(=O)[nH]c1=O here?
Answer: inconclusive: 34.7%

Question: With CN(Cc1ccccc1)Cc1ccccc1OC(=O)N(C)C as the compound, how does the inhibition read?
Answer: inconclusive: 53%

Question: COc1cc(OC)cc(C(=O)Nc2ccc(Br)cc2C(=O)c2ccccc2)c1 was tested. Which inhibition did it give?
Answer: inconclusive: 35.9%

Question: For NC(=O)C1CCN(/C=C2\C(=O)NC(=O)N(Cc3ccco3)C2=O)CC1, which inhibition is on record?
Answer: inconclusive: 33.5%

Question: How did the inhibition turn out when CCOC(=O)C(NC(=O)CC)(Nc1ccc(C(O)(C(=O)OCC)C(F)(F)F)cc1C)C(F)(F)F (stereo unspecified) was run?
Answer: inconclusive: 40%

Question: How did the inhibition turn out when O=C(c1cc(C(=O)NCc2ccccc2)c(=O)n(Cc2ccccc2)c1)c1cc(Br)ccc1O was run?
Answer: inconclusive: 37.6%

Question: With O=C1NC(=S)NC(=O)C1=Cc1cccn1-c1ccc(O)cc1 as the compound, how does the inhibition read?
Answer: inconclusive: 62.9%

Question: Which inhibition does the source give for COc1c(O)ccc2c1-c1c3c(cc4c1C(C2)N(C)CC4)OCO3 (stereo unspecified) here?
Answer: inconclusive: 53.1%

Question: How did the inhibition turn out when C=C(c1ccccc1)P(=O)(O)O was run?
Answer: inconclusive: 42.3%

Question: C[C@@]1(CO)[C@H](O)CC[C@@]2(C)[C@H]1CC[C@H]1C[C@@H]3C[C@@]12CC[C@]3(O)CO was tested. Which inhibition did it give?
Answer: inconclusive: 35.7%

Question: Which inhibition does the source give for O=C(NCC(c1cccnc1)N1CCOCC1)Oc1ccccc1 (stereo unspecified) here?
Answer: inconclusive: 45.4%
